At least one compound was matched to its structure with a doubt left.
System: purified birch pollen cyclophilin (Betula verrucosa), 18-kDa protein containing SEQ ID NO: 1
Experiment: Rotamase assay (chymotrypsin-coupled cleavage of sAAPFn)
Format: biochemical
Settings: concluded from the rotamase assay, 1 µM compound, 30 nM cyclophilin; Fig. 4

C=CC[C@@H]1/C=C(\C)C[C@H](C)C[C@H](OC)[C@H]2O[C@@](O)(C(=O)C(=O)N3CCCC[C@H]3C(=O)O[C@H](/C(C)=C/[C@@H]3CC[C@@H](O)[C@H](OC)C3)[C@H](C)[C@@H](O)CC1=O)[C@H](C)C[C@@H]2OC [FK506]
binding to the allergen (cyclophilin): did not bind

Source: patent EP1067139B1, “Cyclophilin identified as an allergen” (SCAP foundation, priority 1999, dated 2001)
